Measurements from US20040077029A1.
These are yes or no findings as the source states them, for the method shown. Some binding calls cover weakened binding; strength is not graded here.

What was measured:
[1] = biological target: T1, human protooncogene HCCR-1 protein product (human) (UniProt Q6P1Q0); experiment: yeast two-hybrid (Example 1)
T1 sequence (looked up): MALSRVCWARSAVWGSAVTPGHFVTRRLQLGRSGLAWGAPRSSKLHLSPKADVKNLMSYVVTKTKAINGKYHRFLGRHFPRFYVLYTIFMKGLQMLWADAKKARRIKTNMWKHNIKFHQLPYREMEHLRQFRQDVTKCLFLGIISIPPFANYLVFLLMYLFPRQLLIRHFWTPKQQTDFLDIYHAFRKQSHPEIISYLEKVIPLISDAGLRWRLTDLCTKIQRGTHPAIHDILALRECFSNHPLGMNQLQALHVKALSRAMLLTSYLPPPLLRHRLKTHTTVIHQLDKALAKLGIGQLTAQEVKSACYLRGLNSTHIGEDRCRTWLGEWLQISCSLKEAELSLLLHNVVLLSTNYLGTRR

[2] = biological target: T1, human protooncogene HCCR-1 protein product (human); experiment: yeast two-hybrid (LexA bait HCCR-1, human fetal brain AD fusion library)

binding [1]: binds
binding [2]: binds
B1: KG-19 protein (protein, not shown: large carriers)
chain: MFVETLWKVWTELLDVLGLDVSNLSQYFSPASVSSSPARALLLVGVVLLAYWFLSLTLGFTFSVLHVVFGRFFWIVRVVLFSMSCVYILHKYEGEPENAVLPLCFVVAVYFMTGPMGFYWRSSPSGPSNPSNPSVEEKLEHLEKQVRLLNIRLNRVLESLDRSKDK
